Laboratory results: PubChem BioAssay AID652243 (Drosophila RNAi Screening Center, 2013)

Assay: 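Fly genes required for human androgen receptor driven transcription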 (primary screen)
Cell system: Drosophila S2R+ cells
Knock-down reagent: long dsRNA against Drosophila genes
Time to read-out: 72 h (48 h, then 24 h hormone)
Challenge: synthetic androgen R1881 at 10 nM for 24 h
Detection: 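Per-well raw luminescence of the androgen-driven firefly reporter and of the Renilla control, two replicates each, without normalisation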
Direction: firefly reporter light: higher = more light from androgen-responsive reporter; Renilla control light: higher = more constitutive control signal (cell number, transfection)
Rule for the call: 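Hit when the log firefly-to-Renilla ratio dropped or increased by a fixed fold versus the mean of GFP or LacZ controls across duplicate plates; lowering cut given as 1.5 and as 3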
Calls: active = hit: reporter lowered or raised; inactive = no hit
The deposit covers about 24,000 reagents; below is a random part of those with a known target gene and a result. Of all reagents, 246 (1%) got an active call. 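Plates not normalised; calls are printed but the firefly/Renilla ratio behind them is not deposited; fold cut for lowering reported inconsistently.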 Raw values are not corrected between plates. Reagents against one gene are numbered here. Not given: the amount of reagent.

After knock-down of CG15024, the screen gave firefly reporter light, replicate 1 = 1.33e5; firefly reporter light, replicate 2 = 2.08e5; Renilla control light, replicate 1 = 2.11e6; Renilla control light, replicate 2 = 2.98e6; inactive.
With knock-down of Atg2, the screen gave firefly reporter light, replicate 1 = 1.42e6; firefly reporter light, replicate 2 = 7.54e5; Renilla control light, replicate 1 = 2.60e6; Renilla control light, replicate 2 = 1.47e6; inactive.
After knock-down of Dph5 #1, the record shows firefly reporter light, replicate 1 = 33783; firefly reporter light, replicate 2 = 55408; Renilla control light, replicate 1 = 5.78e5; Renilla control light, replicate 2 = 6.56e5; inactive.
For Dph5 #2 the deposit lists firefly reporter light, replicate 1 = 1.80e5; firefly reporter light, replicate 2 = 1.84e5; Renilla control light, replicate 1 = 5.97e5; Renilla control light, replicate 2 = 6.43e5; inactive.
For Polr3D #1, the entry reads firefly reporter light, replicate 1 = 79961; firefly reporter light, replicate 2 = 26277; Renilla control light, replicate 1 = 7.97e5; Renilla control light, replicate 2 = 2.83e5; inactive.
With knock-down of Polr3D #2, the record shows firefly reporter light, replicate 1 = 3.62e5; firefly reporter light, replicate 2 = 3.83e5; Renilla control light, replicate 1 = 8.73e5; Renilla control light, replicate 2 = 7.20e5; inactive.
With knock-down of ATPsynG, the screen gave firefly reporter light, replicate 1 = 3.63e5; firefly reporter light, replicate 2 = 3.10e5; Renilla control light, replicate 1 = 2.22e6; Renilla control light, replicate 2 = 1.72e6; inactive.
CG10237 scored firefly reporter light, replicate 1 = 7.88e5; firefly reporter light, replicate 2 = 7.86e5; Renilla control light, replicate 1 = 1.39e6; Renilla control light, replicate 2 = 2.27e6; inactive.
Knock-down of CG33098 came out at: firefly reporter light, replicate 1 = 6.51e5; firefly reporter light, replicate 2 = 1.13e6; Renilla control light, replicate 1 = 9.37e5; Renilla control light, replicate 2 = 1.59e6; inactive.
CG30334 #1 gave firefly reporter light, replicate 1 = 1.30e5; firefly reporter light, replicate 2 = 91089; Renilla control light, replicate 1 = 2.40e5; Renilla control light, replicate 2 = 3.10e5; inactive.
After knock-down of CG30334 #2 the results were firefly reporter light, replicate 1 = 8.25e5; firefly reporter light, replicate 2 = 1.05e6; Renilla control light, replicate 1 = 5.97e5; Renilla control light, replicate 2 = 7.12e5; inactive.

Reformatted: results already given
{"gene knocked down":"Dph5","reagent":1,"firefly reporter light, replicate 1":33783,"firefly reporter light, replicate 2":55408,"Renilla control light, replicate 1":5.78e5,"Renilla control light, replicate 2":6.56e5,"Call":"inactive"}
{"gene knocked down":"Dph5","reagent":2,"firefly reporter light, replicate 1":1.80e5,"firefly reporter light, replicate 2":1.84e5,"Renilla control light, replicate 1":5.97e5,"Renilla control light, replicate 2":6.43e5,"Call":"inactive"}
{"gene knocked down":"Polr3D","reagent":1,"firefly reporter light, replicate 1":79961,"firefly reporter light, replicate 2":26277,"Renilla control light, replicate 1":7.97e5,"Renilla control light, replicate 2":2.83e5,"Call":"inactive"}

The results go on.
After knock-down of Adck5 #1, the record shows firefly reporter light, replicate 1 = 2.54e5; firefly reporter light, replicate 2 = 1.65e5; Renilla control light, replicate 1 = 1.87e6; Renilla control light, replicate 2 = 1.59e6; inactive.
Depletion of Adck5 #2 came out at: inactive.
For Adck5 #3, the entry reads inactive.
Depletion of Msh6 came out at: firefly reporter light, replicate 1 = 1.82e5; firefly reporter light, replicate 2 = 2.26e5; Renilla control light, replicate 1 = 1.69e6; Renilla control light, replicate 2 = 1.32e6; inactive.
Against CG14245, the entry reads firefly reporter light, replicate 1 = 2.36e5; firefly reporter light, replicate 2 = 2.72e5; Renilla control light, replicate 1 = 2.91e6; Renilla control light, replicate 2 = 3.51e6; inactive.
Knock-down of simj #1 came out at: firefly reporter light, replicate 1 = 4.58e5; firefly reporter light, replicate 2 = 5.06e5; Renilla control light, replicate 1 = 7.78e5; Renilla control light, replicate 2 = 7.76e5; inactive.
simj #2 gave firefly reporter light, replicate 1 = 2.13e5; firefly reporter light, replicate 2 = 1.97e5; Renilla control light, replicate 1 = 7.07e5; Renilla control light, replicate 2 = 4.50e5; inactive.
simj #3 showed firefly reporter light, replicate 1 = 8.85e5; firefly reporter light, replicate 2 = 8.09e5; Renilla control light, replicate 1 = 1.84e6; Renilla control light, replicate 2 = 1.49e6; inactive.
Crys #1 showed firefly reporter light, replicate 1 = 6.19e5; firefly reporter light, replicate 2 = 4.97e5; Renilla control light, replicate 1 = 1.05e6; Renilla control light, replicate 2 = 1.12e6; inactive.
Knock-down of Crys #2 gave: firefly reporter light, replicate 1 = 3.40e5; firefly reporter light, replicate 2 = 3.13e5; Renilla control light, replicate 1 = 3.08e5; Renilla control light, replicate 2 = 2.94e5; inactive.
